Laboratory results: PubChem BioAssay AID1259254 (NCATS, 2017)
Aim: 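Finding genes that stop cells copying their DNA twice in one cycle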 (primary screen). Cell system: human HCT116 colorectal cancer cells. Knock-down reagent: single siRNA against human genes. Duration: 3 days. Detection: 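Nuclei stained with Hoechst and imaged; cell-cycle phase assigned by DNA content; G2 share scaled per plate, non-targeting siRNA 0%, GMNN siRNA 100%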. Scale: G2 robust z-score and G2 cells, % of GMNN control: higher = more G2 cells, more excess DNA replication. Hit rule: 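An siRNA counts as active if its G2 robust z-score lies at least 5 MADs above the screen median; here such calls match roughly 38% of GMNN control or more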.
Here is a random part of about 59,000 reagents tested. In the full data, about 1,550 (2.6%) were called active. 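G2 share is only a proxy for re-replication; each gene was hit by three separate siRNAs, and active genes were retested.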 Entries without a mark were called inactive. The numbers tell different reagents against one gene apart. Not all columns of the deposit are shown. The record does not give: the amount of reagent.

| gene knocked down | reagent no. | G2 robust z-score | G2 cells, % of GMNN control |
| --- | --- | --- | --- |
| NUDT5 (nudix hydrolase 5) | 1 | -0.29 | 0.93 |
| NUDT5 (nudix hydrolase 5) | 2 | 0.615 | 7.3 |
| NUDT5 (nudix hydrolase 5) | 3 | 0.652 | 7.56 |
| JPH3 (junctophilin 3) | 1 | 0.382 | 5.65 |
| JPH3 (junctophilin 3) | 2 | 1.01 | 10 |
| JPH3 (junctophilin 3) | 3 | 1.88 | 16.2 |
| DNAJC8 (DnaJ heat shock protein family (Hsp40) member C8) | 1 | -0.0847 | 2.37 |
| DNAJC8 (DnaJ heat shock protein family (Hsp40) member C8) | 2 | -0.662 | -1.69 |
| DNAJC8 (DnaJ heat shock protein family (Hsp40) member C8) | 3 | -0.954 | -3.74 |
| RCAN1 (regulator of calcineurin 1) | 1 | 0.222 | 4.53 |
| RCAN1 (regulator of calcineurin 1) | 2 | 1.3 | 12.1 |
| RCAN1 (regulator of calcineurin 1) | 3 | 1.55 | 13.9 |
| ZNF44 (zinc finger protein 44) | 1 | 3.24 | 25.7 |
| ZNF44 (zinc finger protein 44) | 2 | -0.292 | 0.914 |
| ZNF44 (zinc finger protein 44) | 3 | 0.00583 | 3.01 |
| ADAT3 (adenosine deaminase tRNA specific 3) | 1 | -0.0809 | 2.4 |
| ADAT3 (adenosine deaminase tRNA specific 3) | 2 | -0.506 | -0.592 |
| ADAT3 (adenosine deaminase tRNA specific 3) | 3 | -0.923 | -3.53 |
| PSMA3 (proteasome 20S subunit alpha 3) | 1 | 4.64 | 35.6 |
| PSMA3 (proteasome 20S subunit alpha 3) | 2 | 3.53 | 27.8 |
| PSMA3 (proteasome 20S subunit alpha 3) | 3 | 1.04 | 10.3 |
| DNMT1 (DNA methyltransferase 1) | 1 | -0.996 | -4.04 |
| DNMT1 (DNA methyltransferase 1) | 2 | -0.413 | 0.0651 |
| DNMT1 (DNA methyltransferase 1) | 3 | -0.2 | 1.56 |
| OR1A2 (olfactory receptor family 1 subfamily A member 2) | 1 | 0.37 | 5.57 |
| OR1A2 (olfactory receptor family 1 subfamily A member 2) | 2 | -0.757 | -2.36 |
| OR1A2 (olfactory receptor family 1 subfamily A member 2) | 3 | 0.141 | 3.96 |
| DDR1 (discoidin domain receptor tyrosine kinase 1) | 1 | -1.9 | -10.4 |
| DDR1 (discoidin domain receptor tyrosine kinase 1) | 2 | 6.96 (active) | 51.9 |
| DDR1 (discoidin domain receptor tyrosine kinase 1) | 3 | -0.921 | -3.51 |

Continued (10 carried over from the part before).
| gene knocked down | reagent no. | G2 robust z-score | G2 cells, % of GMNN control |
| --- | --- | --- | --- |
| PSMA3 (proteasome 20S subunit alpha 3) | 3 | 1.04 | 10.3 |
| DNMT1 (DNA methyltransferase 1) | 1 | -0.996 | -4.04 |
| DNMT1 (DNA methyltransferase 1) | 2 | -0.413 | 0.0651 |
| DNMT1 (DNA methyltransferase 1) | 3 | -0.2 | 1.56 |
| OR1A2 (olfactory receptor family 1 subfamily A member 2) | 1 | 0.37 | 5.57 |
| OR1A2 (olfactory receptor family 1 subfamily A member 2) | 2 | -0.757 | -2.36 |
| OR1A2 (olfactory receptor family 1 subfamily A member 2) | 3 | 0.141 | 3.96 |
| DDR1 (discoidin domain receptor tyrosine kinase 1) | 1 | -1.9 | -10.4 |
| DDR1 (discoidin domain receptor tyrosine kinase 1) | 2 | 6.96 (active) | 51.9 |
| DDR1 (discoidin domain receptor tyrosine kinase 1) | 3 | -0.921 | -3.51 |
| ZNF79 (zinc finger protein 79) | 1 | -1.02 | -4.21 |
| ZNF79 (zinc finger protein 79) | 2 | -0.818 | -2.79 |
| ZNF79 (zinc finger protein 79) | 3 | -0.644 | -1.56 |
| PALS1 (protein associated with LIN7 1, MAGUK p55 family member) | 1 | 0.667 | 7.66 |
| PALS1 (protein associated with LIN7 1, MAGUK p55 family member) | 2 | -1.16 | -5.2 |
| PALS1 (protein associated with LIN7 1, MAGUK p55 family member) | 3 | 2.74 | 22.2 |
| ZNF438 (zinc finger protein 438) | 1 | 0.279 | 4.93 |
| ZNF438 (zinc finger protein 438) | 2 | -0.633 | -1.49 |
| ZNF438 (zinc finger protein 438) | 3 | 2.38 | 19.7 |
| SH3GL3 (SH3 domain containing GRB2 like 3, endophilin A3) | 1 | -0.476 | -0.382 |
| SH3GL3 (SH3 domain containing GRB2 like 3, endophilin A3) | 2 | -0.731 | -2.18 |
| SH3GL3 (SH3 domain containing GRB2 like 3, endophilin A3) | 3 | 0.108 | 3.72 |
| RPS15AP17 (ribosomal protein S15a pseudogene 17) | 1 | 0.00446 | 3 |
| RPS15AP17 (ribosomal protein S15a pseudogene 17) | 2 | 5.19 (active) | 39.5 |
| RPS15AP17 (ribosomal protein S15a pseudogene 17) | 3 | 4.84 | 37 |
| MCHR1 (melanin concentrating hormone receptor 1) | 1 | -0.326 | 0.671 |
| MCHR1 (melanin concentrating hormone receptor 1) | 2 | 0.0302 | 3.18 |
| MCHR1 (melanin concentrating hormone receptor 1) | 3 | 0.587 | 7.1 |
| SOX30 (SRY-box transcription factor 30) | 1 | 0.15 | 4.02 |
| SOX30 (SRY-box transcription factor 30) | 2 | -0.884 | -3.25 |
| SOX30 (SRY-box transcription factor 30) | 3 | 0.679 | 7.75 |
| TRAPPC9 (trafficking protein particle complex subunit 9) | 1 | 2.39 | 19.8 |
| TRAPPC9 (trafficking protein particle complex subunit 9) | 2 | 0.751 | 8.25 |
| TRAPPC9 (trafficking protein particle complex subunit 9) | 3 | 0.221 | 4.52 |
| CDY2A (chromodomain Y-linked 2A) | 1 | 1.62 | 14.4 |
| CDY2A (chromodomain Y-linked 2A) | 2 | -0.0807 | 2.4 |
| CDY2A (chromodomain Y-linked 2A) | 3 | 0.518 | 6.61 |
| ZBTB35 (zinc finger and BTB domain containing 35) | 1 | -0.46 | -0.271 |
| ZBTB35 (zinc finger and BTB domain containing 35) | 2 | 1.79 | 15.5 |
| ZBTB35 (zinc finger and BTB domain containing 35) | 3 | 0.606 | 7.23 |
| CTDSPL2 (CTD small phosphatase like 2) | 1 | -0.828 | -2.86 |
| CTDSPL2 (CTD small phosphatase like 2) | 2 | 1.49 | 13.5 |
| CTDSPL2 (CTD small phosphatase like 2) | 3 | 0.263 | 4.82 |
| MTMR14 (myotubularin related protein 14) | 1 | 0.0992 | 3.67 |
| MTMR14 (myotubularin related protein 14) | 2 | -1.02 | -4.24 |
| MTMR14 (myotubularin related protein 14) | 3 | -1.25 | -5.81 |
| EMB (embigin) | 1 | -0.852 | -3.03 |
| EMB (embigin) | 2 | -0.745 | -2.27 |
| EMB (embigin) | 3 | -0.326 | 0.673 |
| SHKBP1 (SH3KBP1 binding protein 1) | 1 | 0.859 | 9.01 |
| SHKBP1 (SH3KBP1 binding protein 1) | 2 | 0.591 | 7.12 |
| SHKBP1 (SH3KBP1 binding protein 1) | 3 | -0.864 | -3.11 |
| LOC393078 (retired record) | 1 | 1.17 | 11.2 |
| LOC393078 (retired record) | 2 | -0.667 | -1.72 |
| LOC393078 (retired record) | 3 | 0.0693 | 3.46 |
| RDH13 (retinol dehydrogenase 13) | 1 | 0.941 | 9.59 |
| RDH13 (retinol dehydrogenase 13) | 2 | -0.579 | -1.11 |
| RDH13 (retinol dehydrogenase 13) | 3 | 0.187 | 4.29 |
| TSC2 (TSC complex subunit 2) | 1 | 4.56 | 35 |
| TSC2 (TSC complex subunit 2) | 2 | 0.605 | 7.22 |
| TSC2 (TSC complex subunit 2) | 3 | 0.752 | 8.26 |
| TTC39A (tetratricopeptide repeat domain 39A) | 1 | -0.285 | 0.962 |
| TTC39A (tetratricopeptide repeat domain 39A) | 2 | -0.991 | -4 |
| TTC39A (tetratricopeptide repeat domain 39A) | 3 | 0.94 | 9.58 |
| PFKFB2 (6-phosphofructo-2-kinase/fructose-2,6-biphosphatase 2) | 1 | 0.11 | 3.74 |
| PFKFB2 (6-phosphofructo-2-kinase/fructose-2,6-biphosphatase 2) | 2 | 4.62 | 35.5 |
| PFKFB2 (6-phosphofructo-2-kinase/fructose-2,6-biphosphatase 2) | 3 | 0.746 | 8.22 |
